Laboratory results reported in US20240307487A1 (priority 2020, published 2024).
At least one compound was matched to its structure with a doubt left.

Tests used:
[1] = test system: SARS-CoV-2; assay type: cell-based
[2] = test system: SARS-CoV-2; assay type: cell-based; remark: listed apart in the source
[3] = test system: SARS-CoV-2; assay type: cell-based; remark: listed apart in the source
[4] = test system: SARS-CoV-2; assay type: cell-based; remark: listed apart in the source
[5] = test system: spike-ACE2 mediated cell fusion; assay type: cell-based, human
[6] = test system: SARS-CoV; design: species or system mice; conditions: in vivo
[7] = test system: SARS-CoV-2; design: species or system hamsters; conditions: in vivo
[8] = test system: SARS-CoV-2; conditions: cited from earlier work

## CCOC(=O)c1c(CSc2ccccc2)n(C)c2cc(Br)c(O)c(CN(C)C)c12 [arbidol]
[1]
  SARS-CoV-2 replication in Vero-E6 cells: could significantly inhibit SARS-CoV-2 replication in Vero-E6 cells
  SARS-CoV-2 replication in time of addition experiment: could significantly inhibit SARS-CoV-2 replication after viral entry
  antiviral activity of arbidol alone at low concentration: did not show antiviral activity
  enhancement of 8P9R by arbidol: could not enhance 8P9R
[2]
  SARS-CoV-2 replication in Calu-3 cells: not in Calu-3 cells
[3]
  infectious virus after pretreatment and dilution: did not inhibit SARS-CoV-2 infection
[4]
  viral attachment: slightly reduce viral attachment
[5]
  spike-ACE2 mediated cell-cell fusion: efficiently inhibit spike-ACE2 mediated cell-cell fusion
[6]
  SARS-CoV replication in mouse lungs: could not inhibit SARS-CoV replication in mouse lungs
[7]
  SARS-CoV-2 replication in hamster lungs: could not significantly inhibit SARS-CoV-2 replication in hamsters
[8]
  IC50 against SARS-CoV-2: 2 to 20 µg/mL
